The results in this text go back to patent US20040014149A1 (RIGEL PHARMACEUTICALS, published 2004).

No constants are given. Whether binding was seen depends on the method and setting. Some results given as binding are weak or reduced against the parent protein; the word gives no strength.

The target in assay [1] is T1, human thioredoxin-like 32 kDa protein (hTXNL) (human) (UniProt O43396).
T1 sequence: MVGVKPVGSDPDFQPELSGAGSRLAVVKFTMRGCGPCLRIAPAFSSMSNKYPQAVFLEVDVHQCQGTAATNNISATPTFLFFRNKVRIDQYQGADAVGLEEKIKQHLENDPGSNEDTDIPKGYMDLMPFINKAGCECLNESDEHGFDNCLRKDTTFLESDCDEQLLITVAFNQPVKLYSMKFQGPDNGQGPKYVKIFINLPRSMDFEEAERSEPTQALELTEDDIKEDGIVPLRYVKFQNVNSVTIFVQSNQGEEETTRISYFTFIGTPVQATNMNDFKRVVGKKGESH
Nature of the assay: yeast two-hybrid interaction assay.

The target of assay [2] is T1, human thioredoxin-like 32 kDa protein (hTXNL) (human). Nature of the assay: yeast two-hybrid assay.
Assay [3] has the same target. The experiment in a line: yeast two-hybrid, beta-galactosidase read-out, interaction profile compared with functional profile.

On to AARCYMRMPPQSLADAQIYS (peptide, not shown: large carriers) [peptide DR15PE], for which the binding result in assay [1] and in assay [2] was “binds” in each case.

With PERCAARMPPQSLADAQIYS (peptide, not shown: large carriers) [peptide DR15YM], the binding result in assay [1] and in assay [2] was “binds” each time.

For PERCYMRMPPQSLADAAAYS (peptide, not shown: large carriers) [peptide DR15QI], the binding result in assay [1] and in assay [2] was “binds” in each case.

Turning to PERCYMRMPPQSLADAQIYS (peptide, not shown: large carriers) [peptide DR15wt], the binding entry in assay [3], in assay [1] and in assay [2] was “binds” throughout.
